Results are given in words; binding and its absence hold for the method and conditions named. Some results given as binding are weak or reduced against the parent protein; the word gives no strength.
Biological target: Human TSLPR-IL-7Rα receptor complex on transfected cells (human) (UniProt Q9HC73+P16871)
Assay: flow cytometry on cells; 10 ng/mL biotinylated human TSLP on cells co-transfected with the TSLP receptor chains, 2 h; PE-streptavidin; only the binder purified

Sequences of proteins named here, by UniProt entry; tags and fusion partners are left off. A change or cut given only in a name is not applied to a line headed by its entry. Residues count along the entry.
UniProt Q9HC73: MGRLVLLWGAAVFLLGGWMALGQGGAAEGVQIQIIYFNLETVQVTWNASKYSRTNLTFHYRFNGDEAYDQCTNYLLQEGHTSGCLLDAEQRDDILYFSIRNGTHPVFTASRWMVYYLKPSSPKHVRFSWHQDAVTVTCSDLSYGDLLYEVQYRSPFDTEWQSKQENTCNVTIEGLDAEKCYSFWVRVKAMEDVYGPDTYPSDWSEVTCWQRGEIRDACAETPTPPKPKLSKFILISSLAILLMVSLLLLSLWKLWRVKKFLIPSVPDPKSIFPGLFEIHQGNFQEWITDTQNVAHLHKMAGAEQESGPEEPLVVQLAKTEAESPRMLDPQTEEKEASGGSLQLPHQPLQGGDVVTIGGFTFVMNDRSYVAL
UniProt P16871: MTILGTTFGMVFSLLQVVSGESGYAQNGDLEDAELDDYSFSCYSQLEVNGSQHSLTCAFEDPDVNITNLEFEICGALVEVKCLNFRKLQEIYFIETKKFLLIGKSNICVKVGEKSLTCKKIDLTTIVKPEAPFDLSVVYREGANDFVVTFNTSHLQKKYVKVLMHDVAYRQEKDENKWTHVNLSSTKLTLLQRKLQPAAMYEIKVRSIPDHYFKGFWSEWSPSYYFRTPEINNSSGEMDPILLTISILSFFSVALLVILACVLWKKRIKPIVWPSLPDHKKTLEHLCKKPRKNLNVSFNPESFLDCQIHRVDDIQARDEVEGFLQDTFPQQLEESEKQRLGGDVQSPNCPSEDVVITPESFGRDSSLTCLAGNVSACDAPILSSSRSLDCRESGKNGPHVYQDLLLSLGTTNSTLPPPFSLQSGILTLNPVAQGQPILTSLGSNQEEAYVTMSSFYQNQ
UniProt Q969D9, residues 29-159: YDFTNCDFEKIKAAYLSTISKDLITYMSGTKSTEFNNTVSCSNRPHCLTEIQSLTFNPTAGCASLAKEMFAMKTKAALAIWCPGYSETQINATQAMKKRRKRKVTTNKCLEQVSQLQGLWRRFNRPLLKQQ

## Biotinylated human TSLP (from UniProt Q969D9 29-159) (ligand)
  binding: binds
